This note sets out measurements from publication PMC11300639.

By UniProt entry, the sequences of proteins in these tests, tags left out. Where a name states a change or a piece, a line headed by the entry shows the natural chain unless it says otherwise.
UniProt Q9BY78: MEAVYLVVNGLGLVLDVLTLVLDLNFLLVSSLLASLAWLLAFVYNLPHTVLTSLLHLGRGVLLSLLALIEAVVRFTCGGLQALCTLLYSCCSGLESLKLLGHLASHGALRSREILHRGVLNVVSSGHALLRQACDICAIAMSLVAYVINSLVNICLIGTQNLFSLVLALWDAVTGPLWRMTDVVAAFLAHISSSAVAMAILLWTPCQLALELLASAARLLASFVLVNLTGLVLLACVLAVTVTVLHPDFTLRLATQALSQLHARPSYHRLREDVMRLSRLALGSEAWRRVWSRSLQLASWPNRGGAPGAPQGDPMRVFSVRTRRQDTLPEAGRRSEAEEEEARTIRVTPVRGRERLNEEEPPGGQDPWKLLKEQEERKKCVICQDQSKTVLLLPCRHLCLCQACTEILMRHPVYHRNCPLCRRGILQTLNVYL

Assay [1] deals with RNF26-T348D (threonine to aspartate) (human) (UniProt Q9BY78). As to the kind of experiment: pull-down; GST pull-down with recombinant proteins of RNF26; source of TSC1 not told.
Assay [2] concerns the target wild-type RNF26 (recombinant protein in the GST pull-down of Fig. 2n) (human) (UniProt Q9BY78). Described as above.

These are yes or no findings as the source states them, for the method shown. Binding seen in cells or lysates may run through a third protein. A result given as binding can be weak or reduced; the word gives no strength. Tags and fused reporters may be left off the sequences shown.

B1: TSC1 (in the GST pull-down assays) (protein, UniProt Q92574 1-1164)
chain: MAQQANVGELLAMLDSPMLGVRDDVTAVFKENLNSDRGPMLVNTLVDYYLETSSQPALHILTTLQEPHDKHLLDRINEYVGKAATRLSILSLLGHVIRLQPSWKHKLSQAPLLPSLLKCLKMDTDVVVLTTGVLVLITMLPMIPQSGKQHLLDFFDIFGRLSSWCLKKPGHVAEVYLVHLHASVYALFHRLYGMYPCNFVSFLRSHYSMKENLETFEEVVKPMMEHVRIHPELVTGSKDHELDPRRWKRLETHDVVIECAKISLDPTEASYEDGYSVSHQISARFPHRSADVTTSPYADTQNSYGCATSTPYSTSRLMLLNMPGQLPQTLSSPSTRLITEPPQATLWSPSMVCGMTTPPTSPGNVPPDLSHPYSKVFGTTAGGKGTPLGTPATSPPPAPLCHSDDYVHISLPQATVTPPRKEERMDSARPCLHRQHHLLNDRGSEEPPGSKGSVTLSDLPGFLGDLASEEDSIEKDKEEAAISRELSEITTAEAEPVVPRGGFDSPFYRDSLPGSQRKTHSAASSSQGASVNPEPLHSSLDKLGPDTPKQAFTPIDLPCGSADESPAGDRECQTSLETSIFTPSPCKIPPPTRVGFGSGQPPPYDHLFEVALPKTAHHFVIRKTEELLKKAKGNTEEDGVPSTSPMEVLDRLIQQGADAHSKELNKLPLPSKSVDWTHFGGSPPSDEIRTLRDQLLLLHNQLLYERFKRQQHALRNRRLLRKVIKAAALEEHNAAMKDQLKLQEKDIQMWKVSLQKEQARYNQLQEQRDTMVTKLHSQIRQLQHDREEFYNQSQELQTKLEDCRNMIAELRIELKKANNKVCHTELLLSQVSQKLSNSESVQQQMEFLNRQLLVLGEVNELYLEQLQNKHSDTTKEVEMMKAAYRKELEKNRSHVLQQTQRLDTSQKRILELESHLAKKDHLLLEQKKYLEDVKLQARGQLQAAESRYEAQKRITQVFELEILDLYGRLEKDGLLKKLEEEKAEAAEAAEERLDCCNDGCSDSMVGHNEEASGHNGETKTPRPSSARGSSGSRGGGGSSSSSSELSTPEKPPHQRAGPFSSRWETTMGEASASIPTTVGSLPSSKSFLGMKARELFRNKSESQCDEDGMTSSLSESLKTELGKDLGVEAKIPLNLDGPHPSPPTPDSVGQLHIMDYNETHHEHS
B1: the binding result in assay [1] and in assay [2] was “binds” throughout.
